Reference: the supplement of paper PMC10849652
This is one part of the list.

Protein sequences, listed by entry. Tags and fused reporters are not part of them. Lines headed by an entry give the natural chain unless they say otherwise; changes in a name come on top.
UniProt Q15118, whole entry, looked up: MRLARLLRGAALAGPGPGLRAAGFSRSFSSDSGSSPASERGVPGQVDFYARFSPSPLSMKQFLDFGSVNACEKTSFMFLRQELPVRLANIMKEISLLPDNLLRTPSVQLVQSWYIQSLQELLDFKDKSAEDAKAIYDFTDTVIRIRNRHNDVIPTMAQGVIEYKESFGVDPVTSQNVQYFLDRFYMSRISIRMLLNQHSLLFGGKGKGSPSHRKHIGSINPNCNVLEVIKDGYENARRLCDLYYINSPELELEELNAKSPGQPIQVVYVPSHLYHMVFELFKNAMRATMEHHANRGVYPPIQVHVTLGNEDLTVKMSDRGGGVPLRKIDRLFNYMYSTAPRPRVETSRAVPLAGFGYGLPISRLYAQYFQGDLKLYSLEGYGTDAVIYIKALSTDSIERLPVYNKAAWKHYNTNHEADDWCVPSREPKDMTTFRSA
UniProt Q5VU43: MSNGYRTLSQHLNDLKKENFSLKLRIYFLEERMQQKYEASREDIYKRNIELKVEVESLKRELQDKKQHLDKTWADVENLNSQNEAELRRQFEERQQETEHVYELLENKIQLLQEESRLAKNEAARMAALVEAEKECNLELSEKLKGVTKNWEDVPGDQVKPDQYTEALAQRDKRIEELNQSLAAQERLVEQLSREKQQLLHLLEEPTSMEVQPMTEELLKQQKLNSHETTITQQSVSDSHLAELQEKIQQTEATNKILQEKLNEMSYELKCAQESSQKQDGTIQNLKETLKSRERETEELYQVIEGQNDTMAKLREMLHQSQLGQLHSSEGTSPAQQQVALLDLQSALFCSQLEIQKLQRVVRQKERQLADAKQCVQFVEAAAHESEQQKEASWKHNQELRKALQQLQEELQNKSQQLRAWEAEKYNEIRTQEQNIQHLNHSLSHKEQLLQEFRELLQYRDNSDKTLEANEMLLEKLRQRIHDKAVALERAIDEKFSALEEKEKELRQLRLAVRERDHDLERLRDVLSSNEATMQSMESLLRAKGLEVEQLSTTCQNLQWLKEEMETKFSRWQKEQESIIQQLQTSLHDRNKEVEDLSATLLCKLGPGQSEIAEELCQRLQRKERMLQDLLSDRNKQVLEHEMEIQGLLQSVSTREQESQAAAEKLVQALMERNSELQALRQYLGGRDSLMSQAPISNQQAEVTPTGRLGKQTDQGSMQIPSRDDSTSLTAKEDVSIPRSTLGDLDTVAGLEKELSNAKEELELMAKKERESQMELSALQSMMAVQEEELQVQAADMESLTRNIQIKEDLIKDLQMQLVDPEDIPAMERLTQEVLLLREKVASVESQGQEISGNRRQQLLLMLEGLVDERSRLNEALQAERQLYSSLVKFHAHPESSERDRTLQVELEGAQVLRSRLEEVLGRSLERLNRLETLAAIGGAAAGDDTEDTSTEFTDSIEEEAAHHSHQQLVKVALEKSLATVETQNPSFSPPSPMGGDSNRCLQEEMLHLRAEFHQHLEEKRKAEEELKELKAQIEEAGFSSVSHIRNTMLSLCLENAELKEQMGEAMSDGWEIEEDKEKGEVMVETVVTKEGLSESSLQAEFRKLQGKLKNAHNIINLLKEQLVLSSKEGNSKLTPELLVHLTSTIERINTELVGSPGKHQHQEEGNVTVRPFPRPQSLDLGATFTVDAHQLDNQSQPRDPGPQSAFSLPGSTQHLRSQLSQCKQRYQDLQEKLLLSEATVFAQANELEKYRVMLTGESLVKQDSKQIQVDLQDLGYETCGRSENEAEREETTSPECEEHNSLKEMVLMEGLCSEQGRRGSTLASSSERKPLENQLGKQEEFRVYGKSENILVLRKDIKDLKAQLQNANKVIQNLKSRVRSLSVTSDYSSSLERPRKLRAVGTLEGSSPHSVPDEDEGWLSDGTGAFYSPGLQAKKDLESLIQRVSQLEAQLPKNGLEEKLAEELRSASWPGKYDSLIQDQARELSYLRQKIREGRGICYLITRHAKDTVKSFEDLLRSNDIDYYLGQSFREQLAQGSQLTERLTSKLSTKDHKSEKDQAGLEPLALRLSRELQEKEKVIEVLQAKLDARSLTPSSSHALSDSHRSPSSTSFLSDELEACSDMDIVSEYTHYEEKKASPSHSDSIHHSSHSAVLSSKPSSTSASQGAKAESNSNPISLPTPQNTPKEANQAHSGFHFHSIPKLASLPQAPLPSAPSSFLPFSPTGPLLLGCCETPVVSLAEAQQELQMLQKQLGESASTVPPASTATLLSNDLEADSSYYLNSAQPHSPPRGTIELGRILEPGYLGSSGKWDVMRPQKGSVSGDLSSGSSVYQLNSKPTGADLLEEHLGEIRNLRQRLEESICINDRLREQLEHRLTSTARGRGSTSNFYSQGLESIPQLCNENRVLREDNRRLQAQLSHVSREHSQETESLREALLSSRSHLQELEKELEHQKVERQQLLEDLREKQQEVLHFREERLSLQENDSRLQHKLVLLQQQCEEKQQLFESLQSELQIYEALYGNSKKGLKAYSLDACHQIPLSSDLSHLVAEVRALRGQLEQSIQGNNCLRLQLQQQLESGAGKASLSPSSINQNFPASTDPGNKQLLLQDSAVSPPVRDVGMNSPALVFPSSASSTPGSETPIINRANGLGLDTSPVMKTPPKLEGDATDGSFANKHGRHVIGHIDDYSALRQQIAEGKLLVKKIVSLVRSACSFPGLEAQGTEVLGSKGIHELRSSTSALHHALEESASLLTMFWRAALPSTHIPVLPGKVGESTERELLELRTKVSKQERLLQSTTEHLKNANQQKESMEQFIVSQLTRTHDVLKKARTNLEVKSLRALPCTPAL
UniProt P61457: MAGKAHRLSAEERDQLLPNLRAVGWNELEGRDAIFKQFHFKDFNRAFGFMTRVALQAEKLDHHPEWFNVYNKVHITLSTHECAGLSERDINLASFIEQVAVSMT
UniProt P09874, whole entry, looked up: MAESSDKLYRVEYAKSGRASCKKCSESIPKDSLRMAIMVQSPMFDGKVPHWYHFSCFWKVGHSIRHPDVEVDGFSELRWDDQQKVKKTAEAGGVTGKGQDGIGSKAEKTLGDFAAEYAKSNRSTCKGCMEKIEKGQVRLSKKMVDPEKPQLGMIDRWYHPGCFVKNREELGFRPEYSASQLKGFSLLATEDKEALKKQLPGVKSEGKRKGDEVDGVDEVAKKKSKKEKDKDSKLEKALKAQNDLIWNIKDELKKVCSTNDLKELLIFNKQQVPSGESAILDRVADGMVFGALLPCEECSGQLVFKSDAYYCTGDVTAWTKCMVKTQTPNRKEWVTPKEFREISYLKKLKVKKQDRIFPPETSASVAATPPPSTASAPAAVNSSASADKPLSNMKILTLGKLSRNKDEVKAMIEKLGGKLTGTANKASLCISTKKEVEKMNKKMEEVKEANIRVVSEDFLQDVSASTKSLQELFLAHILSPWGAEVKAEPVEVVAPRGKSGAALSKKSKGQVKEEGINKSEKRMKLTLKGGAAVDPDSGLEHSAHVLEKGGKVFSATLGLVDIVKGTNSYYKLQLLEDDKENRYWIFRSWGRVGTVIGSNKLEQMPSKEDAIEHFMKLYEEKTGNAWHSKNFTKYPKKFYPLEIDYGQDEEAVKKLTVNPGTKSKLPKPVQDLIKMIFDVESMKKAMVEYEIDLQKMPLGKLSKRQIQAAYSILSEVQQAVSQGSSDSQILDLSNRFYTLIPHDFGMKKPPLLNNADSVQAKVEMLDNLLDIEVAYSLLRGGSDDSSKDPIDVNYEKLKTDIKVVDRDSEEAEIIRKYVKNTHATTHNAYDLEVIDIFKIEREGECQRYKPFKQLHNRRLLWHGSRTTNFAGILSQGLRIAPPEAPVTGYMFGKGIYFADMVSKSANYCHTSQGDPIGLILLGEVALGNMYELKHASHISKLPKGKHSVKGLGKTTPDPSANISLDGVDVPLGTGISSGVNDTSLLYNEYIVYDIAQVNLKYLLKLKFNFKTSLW
UniProt Q8NBM8: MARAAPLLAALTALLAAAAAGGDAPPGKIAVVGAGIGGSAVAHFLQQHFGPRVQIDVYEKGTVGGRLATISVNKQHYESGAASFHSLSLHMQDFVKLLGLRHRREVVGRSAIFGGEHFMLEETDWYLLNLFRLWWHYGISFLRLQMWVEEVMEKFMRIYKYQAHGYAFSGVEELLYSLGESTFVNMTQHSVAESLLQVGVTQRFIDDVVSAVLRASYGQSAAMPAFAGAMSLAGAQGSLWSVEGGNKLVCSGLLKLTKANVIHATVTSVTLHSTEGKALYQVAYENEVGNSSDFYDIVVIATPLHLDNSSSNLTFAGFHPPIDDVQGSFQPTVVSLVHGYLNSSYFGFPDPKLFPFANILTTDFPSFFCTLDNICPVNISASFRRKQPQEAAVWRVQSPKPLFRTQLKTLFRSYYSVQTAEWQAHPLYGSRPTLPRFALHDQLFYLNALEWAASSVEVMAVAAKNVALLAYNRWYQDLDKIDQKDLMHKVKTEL
UniProt Q9NUG6, whole entry, looked up: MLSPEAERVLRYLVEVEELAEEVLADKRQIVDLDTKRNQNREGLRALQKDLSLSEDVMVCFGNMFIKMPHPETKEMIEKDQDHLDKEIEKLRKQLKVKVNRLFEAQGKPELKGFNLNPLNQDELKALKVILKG
UniProt Q16822, whole entry, looked up: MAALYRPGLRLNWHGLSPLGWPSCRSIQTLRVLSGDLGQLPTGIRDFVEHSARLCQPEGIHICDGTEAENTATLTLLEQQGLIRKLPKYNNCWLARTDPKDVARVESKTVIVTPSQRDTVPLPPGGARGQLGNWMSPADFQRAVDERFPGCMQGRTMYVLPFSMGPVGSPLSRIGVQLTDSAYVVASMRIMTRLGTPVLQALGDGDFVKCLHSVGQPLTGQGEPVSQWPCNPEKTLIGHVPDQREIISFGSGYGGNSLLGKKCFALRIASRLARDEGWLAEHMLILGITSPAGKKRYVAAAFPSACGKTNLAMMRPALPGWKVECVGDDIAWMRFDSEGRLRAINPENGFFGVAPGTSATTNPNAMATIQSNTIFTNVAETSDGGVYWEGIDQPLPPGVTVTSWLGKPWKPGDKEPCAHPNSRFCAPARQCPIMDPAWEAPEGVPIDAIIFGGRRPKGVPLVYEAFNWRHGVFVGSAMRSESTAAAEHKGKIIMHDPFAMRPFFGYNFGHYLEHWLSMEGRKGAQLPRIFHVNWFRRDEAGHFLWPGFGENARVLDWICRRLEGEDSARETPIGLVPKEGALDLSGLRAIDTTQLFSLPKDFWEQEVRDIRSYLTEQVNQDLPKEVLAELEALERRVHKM
UniProt Q14554: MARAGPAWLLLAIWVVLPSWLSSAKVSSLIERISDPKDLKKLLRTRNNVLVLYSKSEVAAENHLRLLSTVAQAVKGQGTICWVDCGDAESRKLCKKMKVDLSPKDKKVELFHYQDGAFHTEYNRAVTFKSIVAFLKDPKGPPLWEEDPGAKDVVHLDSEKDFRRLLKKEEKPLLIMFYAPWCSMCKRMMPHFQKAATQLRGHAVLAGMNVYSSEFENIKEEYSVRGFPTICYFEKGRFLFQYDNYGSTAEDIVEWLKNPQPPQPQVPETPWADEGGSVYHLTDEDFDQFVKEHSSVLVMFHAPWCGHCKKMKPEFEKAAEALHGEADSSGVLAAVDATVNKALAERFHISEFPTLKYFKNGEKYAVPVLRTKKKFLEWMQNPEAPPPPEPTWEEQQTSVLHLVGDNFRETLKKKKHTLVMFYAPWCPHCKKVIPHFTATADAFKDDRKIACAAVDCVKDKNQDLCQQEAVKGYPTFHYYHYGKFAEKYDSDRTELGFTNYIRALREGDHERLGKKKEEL
UniProt Q9HBH1: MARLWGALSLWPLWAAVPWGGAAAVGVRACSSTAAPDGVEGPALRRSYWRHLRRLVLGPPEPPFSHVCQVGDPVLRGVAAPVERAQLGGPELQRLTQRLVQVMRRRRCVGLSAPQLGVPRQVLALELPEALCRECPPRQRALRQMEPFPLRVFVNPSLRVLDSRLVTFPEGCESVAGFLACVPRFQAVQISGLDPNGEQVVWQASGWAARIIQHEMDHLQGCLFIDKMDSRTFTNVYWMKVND
UniProt O00330, whole entry, looked up: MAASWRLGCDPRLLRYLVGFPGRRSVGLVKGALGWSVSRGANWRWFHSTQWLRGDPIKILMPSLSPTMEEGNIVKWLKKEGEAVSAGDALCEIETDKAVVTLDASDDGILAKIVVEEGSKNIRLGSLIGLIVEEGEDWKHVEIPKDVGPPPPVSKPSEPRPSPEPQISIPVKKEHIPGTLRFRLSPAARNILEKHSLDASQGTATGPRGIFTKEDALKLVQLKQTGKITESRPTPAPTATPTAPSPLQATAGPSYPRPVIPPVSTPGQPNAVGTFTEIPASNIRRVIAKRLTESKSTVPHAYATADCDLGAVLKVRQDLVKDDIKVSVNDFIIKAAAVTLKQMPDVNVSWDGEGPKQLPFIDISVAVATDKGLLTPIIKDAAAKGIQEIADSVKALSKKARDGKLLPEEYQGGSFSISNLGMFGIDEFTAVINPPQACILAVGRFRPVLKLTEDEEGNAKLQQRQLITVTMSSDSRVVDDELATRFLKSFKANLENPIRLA
UniProt Q5EBL8: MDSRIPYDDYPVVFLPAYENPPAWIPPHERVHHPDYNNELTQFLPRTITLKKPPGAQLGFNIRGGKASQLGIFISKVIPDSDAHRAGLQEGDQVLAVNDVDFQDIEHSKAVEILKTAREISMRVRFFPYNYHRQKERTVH

What was measured:
Test in all cases: log2 fold change, soluble protein after heating vs DMSO (PISA); higher = thermal stabilisation; K562 cells, 10 uM, 30 min; active = over 0.2 and 3.5 SD of the protein, either way, in both replicates (recomputed)
[1] = compound: C#Cc1cccc(Nc2ncnc3cc(OCCOC)c(OCCOC)cc23)c1 [erlotinib]
Procedure, shortened: (§1)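 Thermal stability values are relative to control samples and come from duplicates. They are expressed as log2 fold changes. For measurement, K562 cells (2×10^6 cells/mL) received 10 μM compound for 30 min, and aliquots were heated for 3 min over 48°C-58°C, pooled, and extracted at 4°C in PBS with 0.5% NP-40. Soluble protein, the supernatant after 21,000xg for 90 min, was quantified by TMTpro 16plex LC-MS/MS with equalised channel sums.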

[2] = compound: C/C(=N\NC(=O)C1=CC(=CC=C1)S(=O)(=O)N2CCOCC2)/C3=C(C=CC(=C3)Cl)O
Procedure, shortened: as §1

[3] = compound: C1=CC(=C(C=C1Cl)C2=NC3=NC=CN=C3C(=N2)NC4=CC=NC=C4)F
Procedure, shortened: as §1

[4] = compound: C1=CC(=CC=C1C2=NC3=C(N2)C=C(C=C3)C(=O)N)OC4=CC=C(C=C4)Cl
Procedure, shortened: as §1

[5] = compound: C1=CC2=C(C=CC(=C2)/C=C\3/C(=O)NC(=NCC4=CC=CS4)S3)N=C1
Procedure, shortened: as §1

[6] = compound: C1=CC2=NC=CN=C2C=C1/C=C/3\C(=O)NC(=O)S3
Procedure, shortened: as §1

[7] = compound: C1=CC=C(C=C1)C2=NC(=C(N2)C3=CC=NC=C3)C4=CC(=C(C=C4)Cl)O
Procedure, shortened: as §1

[8] = compound: C1=CC=C2C(=C1)C3=NNC4=CC=CC(=C43)C2=O
Procedure, shortened: as §1

[9] = compound: C1CCN(C1)C(=O)NC2=CC=CC(=C2)NC3=NC=C(C(=N3)NCCC4=CN=CN4)Br
Procedure, shortened: as §1

[10] = compound: C1CN(CCC1(CC2=CC=C(C=C2)Cl)N)C3=NC=NC4=C3C=CN4
Procedure, shortened: as §1

Row | Target | log2 fold change [1] | log2 fold change [2] | log2 fold change [3] | log2 fold change [4] | log2 fold change [5] | log2 fold change [6] | log2 fold change [7] | log2 fold change [8] | log2 fold change [9] | log2 fold change [10]
1 | PCYOX1 (UniProt Q9UHG3) | inactive: -0.008 | inactive: 0.003 | inactive: 0.076 | inactive: 0.012 | inactive: 0.05 | inactive: 0.032 | inactive: -0.007 | inactive: -0.055 | inactive: 0.006 | inactive: 0.054
2 | PDSS1 (UniProt Q5T2R2) | inactive: -0.02 | inactive: 0.14 | inactive: 0.25 | inactive: -0.016 | inactive: 0.029 | inactive: -0.008 | inactive: 0.02 | inactive: -0.036 | inactive: -0.036 | inactive: 0.012
3 | PAPSS1 (UniProt O43252) | inactive: 0.043 | inactive: -0.006 | inactive: 0.027 | inactive: 0.003 | inactive: 0.007 | inactive: 0.009 | inactive: -0.064 | inactive: 0.023 | inactive: 0.008 | inactive: 0.027
4 | PCYT1B (UniProt Q9Y5K3) | inactive: 0.05 | inactive: 0.068 | inactive: -0.043 | inactive: 0.023 | inactive: 0.078 | inactive: 0.079 | inactive: -0.066 | inactive: 0.004 | inactive: 0.01 | inactive: -0.003
5 | PEF1 (UniProt Q9UBV8) | inactive: -0.053 | inactive: 0.108 | inactive: 0.079 | inactive: -0.029 | inactive: 0.134 | inactive: -0.064 | inactive: 0.109 | inactive: 0.035 | inactive: -0.008 | inactive: -0.069
6 | PEX14 (UniProt O75381) | inactive: -0.013 | inactive: 0 | inactive: 0.112 | inactive: 0.019 | inactive: -0.002 | inactive: 0.051 | inactive: 0.04 | inactive: 0.033 | inactive: 0.009 | inactive: 0.025
7 | PDK1 (UniProt Q15118) | inactive: -0.004 | inactive: 0.036 | inactive: -0.025 | inactive: 0.009 | inactive: 0.07 | inactive: 0.035 | inactive: -0.146 | inactive: 0.076 | inactive: 0.086 | inactive: -0.028
8 | PALM3 (UniProt A6NDB9) | inactive: 0.004 | inactive: -0.02 | inactive: -0.032 | inactive: 0.019 | inactive: 0.018 | inactive: 0.036 | inactive: 0.053 | inactive: -0.052 | inactive: -0.066 | inactive: 0.068
9 | PDXK (UniProt O00764) | inactive: 0.006 | inactive: -0.026 | inactive: 0.073 | inactive: 0.022 | inactive: -0.011 | inactive: -0.032 | inactive: 0.034 | inactive: 0.009 | inactive: -0.01 | inactive: 0.037
10 | PCBP2 isoform 3 (UniProt Q15366) | inactive: -0.01 | inactive: 0.087 | inactive: 0.038 | inactive: -0.039 | inactive: 0.019 | inactive: 0.025 | inactive: 0.063 | inactive: 0.017 | inactive: -0.039 | inactive: 0.01
11 | PDE4DIP isoform 4 (UniProt Q5VU43) | inactive: 0.027 | inactive: -0.002 | inactive: 0.186 | inactive: 0.01 | inactive: 0.089 | inactive: -0.043 | inactive: -0.059 | inactive: -0.02 | inactive: -0.037 | inactive: -0.061
12 | PDHB (UniProt P11177) | inactive: -0.093 | inactive: -0.077 | inactive: -0.091 | inactive: 0.075 | inactive: 0.026 | inactive: -0.047 | inactive: 0.004 | inactive: 0.127 | inactive: -0.075 | inactive: -0.155
13 | PDLIM4 (UniProt P50479) | inactive: 0.06 | inactive: -0.001 | inactive: 0.025 | inactive: -0.018 | inactive: 0.068 | inactive: 0.046 | inactive: -0.022 | inactive: -0.037 | inactive: -0.055 | inactive: 0.049
14 | PAFAH1B1 (UniProt P43034) | inactive: -0.011 | inactive: 0.032 | inactive: 0 | inactive: 0.008 | inactive: -0.004 | inactive: 0.005 | inactive: -0.039 | inactive: -0.021 | inactive: 0.001 | inactive: 0.01
15 | PCBD1 (UniProt P61457) | inactive: 0.034 | inactive: 0.058 | inactive: -0.001 | inactive: 0.002 | inactive: 0.104 | inactive: 0.002 | inactive: 0.021 | inactive: -0.021 | inactive: -0.029 | inactive: 0.018
16 | PARP1 (UniProt P09874) | inactive: 0.076 | inactive: 0.135 | inactive: 0.042 | inactive: -0.005 | inactive: 0.098 | inactive: -0.042 | inactive: 0.137 | inactive: 0.35 | inactive: -0.078 | inactive: -0.042
17 | PCYOX1L (UniProt Q8NBM8) | inactive: -0.025 | inactive: 0.027 | inactive: -0.031 | inactive: 0.013 | inactive: 0.035 | inactive: -0.003 | inactive: 0.066 | inactive: -0.016 | inactive: 0.025 | inactive: 0.057
18 | PDRG1 (UniProt Q9NUG6) | inactive: -0.006 | inactive: -0.032 | inactive: -0.033 | inactive: 0.013 | inactive: -0.019 | inactive: 0.037 | inactive: 0.141 | inactive: -0.051 | inactive: -0.045 | inactive: -0.098
19 | PDCD6IP (UniProt Q8WUM4) | inactive: 0.162 | inactive: 0.167 | inactive: 0.045 | inactive: -0.044 | inactive: 0.122 | inactive: 0.014 | inactive: 0.031 | inactive: 0.043 | inactive: -0.095 | inactive: -0.122
20 | PAICS (UniProt P22234) | inactive: 0.01 | inactive: -0.019 | inactive: 0.03 | inactive: -0.002 | inactive: 0.005 | inactive: -0.013 | inactive: -0.037 | inactive: 0.02 | inactive: 0.043 | inactive: 0.041
21 | PCK2 (UniProt Q16822) | inactive: 0.025 | active: -0.224 | inactive: 0.108 | inactive: -0.009 | inactive: 0.038 | inactive: -0.016 | inactive: -0.023 | inactive: 0.072 | inactive: -0.018 | inactive: -0.001
22 | PALMD (UniProt Q9NP74) | inactive: 0.032 | inactive: 0 | inactive: 0.063 | inactive: 0.035 | inactive: 0.026 | inactive: 0.103 | inactive: -0.074 | inactive: -0.008 | inactive: 0.02 | inactive: 0.11
23 | PDIA5 (UniProt Q14554) | inactive: -0.07 | inactive: -0.046 | inactive: -0.043 | inactive: -0.002 | inactive: -0.039 | inactive: 0.002 | inactive: 0.02 | inactive: -0.005 | inactive: -0.006 | inactive: -0.063
24 | PBDC1 (UniProt Q9BVG4) | inactive: -0.027 | inactive: 0.08 | inactive: 0.036 | inactive: -0.024 | inactive: 0.068 | inactive: -0.001 | inactive: -0.005 | inactive: -0.032 | inactive: -0.044 | inactive: -0.084
25 | PARL (UniProt Q9H300) | inactive: -0.019 | inactive: 0.015 | inactive: 0.011 | inactive: -0.011 | inactive: 0.016 | inactive: 0.044 | inactive: 0.026 | inactive: -0.012 | inactive: 0.015 | inactive: 0.017
26 | PDF (UniProt Q9HBH1) | inactive: 0.027 | inactive: 0.032 | inactive: 0.046 | inactive: 0.065 | inactive: 0.045 | inactive: 0.033 | inactive: -0.03 | inactive: 0.02 | inactive: -0.03 | inactive: 0.03
27 | PECAM1 (UniProt P16284) | inactive: -0.039 | inactive: 0.072 | inactive: -0.055 | inactive: 0.057 | inactive: 0.054 | inactive: -0.024 | inactive: -0.05 | inactive: -0.133 | inactive: 0.057 | inactive: 0.021
28 | PDHX (UniProt O00330) | inactive: -0.167 | inactive: -0.177 | inactive: -0.149 | inactive: 0.022 | inactive: -0.155 | inactive: -0.045 | inactive: -0.037 | inactive: 0.089 | inactive: -0.033 | inactive: -0.179
29 | PAXBP1 (UniProt Q9Y5B6) | inactive: 0.086 | – | – | inactive: -0.047 | – | inactive: 0.29 | inactive: -0.231 | – | inactive: -0.009 | inactive: -0.458
30 | PDZD11 isoform 2 (UniProt Q5EBL8) | inactive: 0.083 | – | inactive: 0.021 | inactive: -0.005 | – | inactive: 0.046 | inactive: 0.001 | – | inactive: 0.008 | inactive: -0.046

Some of the entries so far, as a markdown table:

| Row | Target | log2 fold change [1] | log2 fold change [2] | log2 fold change [3] | log2 fold change [4] | log2 fold change [5] | log2 fold change [6] | log2 fold change [7] | log2 fold change [8] | log2 fold change [9] | log2 fold change [10] |
| --- | --- | --- | --- | --- | --- | --- | --- | --- | --- | --- | --- |
| 20 | PAICS (UniProt P22234) | inactive: 0.01 | inactive: -0.019 | inactive: 0.03 | inactive: -0.002 | inactive: 0.005 | inactive: -0.013 | inactive: -0.037 | inactive: 0.02 | inactive: 0.043 | inactive: 0.041 |
| 22 | PALMD (UniProt Q9NP74) | inactive: 0.032 | inactive: 0 | inactive: 0.063 | inactive: 0.035 | inactive: 0.026 | inactive: 0.103 | inactive: -0.074 | inactive: -0.008 | inactive: 0.02 | inactive: 0.11 |
